The target in the experiment is T1, Argonaute 2 (Drosophila melanogaster (endogenous in embryos)) (UniProt Q9VUQ5).
T1 sequence: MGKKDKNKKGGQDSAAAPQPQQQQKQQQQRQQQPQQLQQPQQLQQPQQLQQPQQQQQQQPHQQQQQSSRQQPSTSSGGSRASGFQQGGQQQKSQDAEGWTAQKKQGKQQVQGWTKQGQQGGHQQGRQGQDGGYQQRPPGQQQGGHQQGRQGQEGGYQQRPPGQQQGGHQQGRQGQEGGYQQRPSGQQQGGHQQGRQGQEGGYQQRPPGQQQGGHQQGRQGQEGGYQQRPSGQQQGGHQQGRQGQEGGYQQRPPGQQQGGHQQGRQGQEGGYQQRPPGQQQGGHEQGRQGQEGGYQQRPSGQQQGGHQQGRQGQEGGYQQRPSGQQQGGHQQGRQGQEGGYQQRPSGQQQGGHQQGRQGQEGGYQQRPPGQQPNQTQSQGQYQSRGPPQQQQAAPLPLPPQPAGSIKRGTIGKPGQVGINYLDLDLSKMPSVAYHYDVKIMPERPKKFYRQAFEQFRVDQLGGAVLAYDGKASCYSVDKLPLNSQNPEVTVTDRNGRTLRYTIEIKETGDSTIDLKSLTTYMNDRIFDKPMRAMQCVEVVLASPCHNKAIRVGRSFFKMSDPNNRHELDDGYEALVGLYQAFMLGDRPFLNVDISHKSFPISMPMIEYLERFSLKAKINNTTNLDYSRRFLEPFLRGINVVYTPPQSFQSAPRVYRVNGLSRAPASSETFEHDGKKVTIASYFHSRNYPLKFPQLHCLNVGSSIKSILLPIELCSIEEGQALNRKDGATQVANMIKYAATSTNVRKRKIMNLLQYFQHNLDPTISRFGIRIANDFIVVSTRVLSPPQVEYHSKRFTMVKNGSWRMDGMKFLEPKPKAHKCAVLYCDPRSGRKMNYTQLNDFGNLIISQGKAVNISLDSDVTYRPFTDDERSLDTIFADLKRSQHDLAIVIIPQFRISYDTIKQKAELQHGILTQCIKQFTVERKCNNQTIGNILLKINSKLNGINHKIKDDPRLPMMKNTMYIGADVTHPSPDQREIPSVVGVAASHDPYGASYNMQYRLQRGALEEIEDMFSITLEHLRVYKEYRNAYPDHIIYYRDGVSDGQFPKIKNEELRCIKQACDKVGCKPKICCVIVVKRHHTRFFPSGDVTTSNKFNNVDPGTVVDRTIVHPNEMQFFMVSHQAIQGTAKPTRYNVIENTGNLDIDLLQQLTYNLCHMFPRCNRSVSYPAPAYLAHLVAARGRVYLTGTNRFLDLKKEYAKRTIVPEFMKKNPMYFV
Nature of the experiment: co-IP; rabbit anti-Ago2Cterm covalently bound to coupling gel (AminoLink Plus); wild-type embryo extract, 500 ug protein, CHAPS lysis buffer (20 mM Tris pH 8, 150 mM NaCl, 10% glycerol, 2 mM EDTA, 10 mM CHAPS), 1.5 h at 4 C; Western blot with anti-Ago1; anti-GFP antibody as control. For orientation: In western blotting, separated proteins are transferred to a membrane and probed.

By UniProt entry, the sequences of proteins in these tests, tags left out.
UniProt Q32KD4: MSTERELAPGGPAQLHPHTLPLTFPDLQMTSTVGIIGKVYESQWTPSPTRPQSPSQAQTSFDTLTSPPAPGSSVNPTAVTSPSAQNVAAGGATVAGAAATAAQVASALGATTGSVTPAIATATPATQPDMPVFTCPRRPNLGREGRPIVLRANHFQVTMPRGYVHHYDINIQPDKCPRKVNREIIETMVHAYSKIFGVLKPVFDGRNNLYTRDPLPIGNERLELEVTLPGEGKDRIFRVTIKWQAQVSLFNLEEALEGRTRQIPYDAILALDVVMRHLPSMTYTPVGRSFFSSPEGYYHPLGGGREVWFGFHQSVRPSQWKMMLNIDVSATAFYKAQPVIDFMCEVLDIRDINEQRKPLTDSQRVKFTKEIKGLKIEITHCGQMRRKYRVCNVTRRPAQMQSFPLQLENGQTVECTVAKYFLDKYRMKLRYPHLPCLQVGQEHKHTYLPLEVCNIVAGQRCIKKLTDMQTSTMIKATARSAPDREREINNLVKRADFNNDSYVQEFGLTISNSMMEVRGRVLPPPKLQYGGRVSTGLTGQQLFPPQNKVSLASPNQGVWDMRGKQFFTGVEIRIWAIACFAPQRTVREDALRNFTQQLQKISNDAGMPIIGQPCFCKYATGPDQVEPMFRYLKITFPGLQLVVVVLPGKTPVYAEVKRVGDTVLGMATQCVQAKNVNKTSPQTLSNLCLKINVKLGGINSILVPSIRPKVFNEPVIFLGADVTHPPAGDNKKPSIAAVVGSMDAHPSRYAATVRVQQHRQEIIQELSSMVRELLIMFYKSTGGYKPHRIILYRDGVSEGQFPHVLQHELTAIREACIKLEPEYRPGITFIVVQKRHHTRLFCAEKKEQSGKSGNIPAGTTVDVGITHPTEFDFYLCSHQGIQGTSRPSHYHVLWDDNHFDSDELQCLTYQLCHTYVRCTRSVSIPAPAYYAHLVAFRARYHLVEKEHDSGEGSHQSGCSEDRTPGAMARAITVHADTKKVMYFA

Results are given in words; binding and its absence hold for the method and conditions named. In cells and extracts the contact can be indirect. Some entries that bind do so weakly or less than the wild type.

Consider Argonaute 1 (from UniProt Q32KD4 1-984), for which the binding entry is given as “binds”.
